# Entries after “also recorded” stand apart in the source; their conditions may differ.
# Assays:
# [1] = SPECT/CT, whole body activity and optical imaging of ^111In-MTTI-157 labeled LS174T cells in SKH-1 mice; type: in vivo, mouse; conditions: lungs, liver, spleen of SKH-1 mice after tail vein injection of labeled LS174T cells
# Method: ^111In-MTTI-157 labeled LS174T cells were administered to mice to follow their fate and that of the labels they carried. All animal experiments were approved by the Institutional Animal Care and Use Committee of the university. Male SKH-1 mice about 8 week-old (Charles River Laboratories, Inc., Wilmington, Mass.) were housed under standard conditions and fed white chow (AIN-93G Purified Diet, Harlan, Madison, Wis.). LS174T cells were prepared labeled with ^111In-MTTI-157 as above, and about 5×10^6 cells with 10-12 μCi was injected by tail vein per mouse.
# The mice were followed by SPECT/CT imaging (NanoSPECT/CT, Bioscan, Inc., Washington, D.C.) with scans at 30 min, 1 h, 24 h, 72 h, 120 h and 168 h following injection. The SPECT image parameters were 1.0 mm/pixel, 256×256 frame size and 60 sec per projection with 24 projections. Acquisition time was approximately 30 min. During imaging, the animal was anesthetized with 1-2% isoflurane in 1.5 L/min oxygen. A CT scan was acquired prior to the SPECT scan and was performed at standard resolution, using a 45 kVp voltage and 500 milliseconds exposure time. […]
# Optical images (Pearl Imager, LiCor Biosciences, Lincoln, Nebr.) were acquired on day 0 and at intervals through day 28. […] After imaging, the lungs, liver and spleen were removed, imaged and then imbedded in OCT in preparation for frozen section fluorescence microscopy. […]
# LS-174T cells = assay: Culture of ^111In-MTTI-157 labeled LS-174T cells: fluorescence microscopy and gamma counting over 8 days; type: cell-based, human
# Method: The ^111In-MTTI-157 labeled LS-174Tcells were seeded into 12-well plates with about 10^6 cells per well to grow under normal culture conditions to evaluate cell viability, dye stability, and dye partitioning to daughter cells over time. The cell-associated fluorescence was detected from the plates on an Olympus IX 70. Inverted Light Microscope (Olympus America, Inc., NY) using a Cy5 filter on days 0, 3 and 8 after seeding. On each day, samples of cells were collected, counted for cell number with a hemocytometer and radioactivity per 10^6 cells determined by gamma well counter Na (TI) (Cobra II Auto-Gamma, Packard Instrument Co, Downer Grove, Ill.).
smiles,measurement,setting,value
CCCCCCCCCCCCCCCCCCCCCCN1C(=CC=CC=CC2=[N+](CCCCCCCCCCCCCCCCCCCCCC)c3ccc(CNC(=O)CN4CCN(CC(=O)O)CCN(CC(=O)O)CCN(CC(=O)O)CC4)cc3C2(C)C)C(C)(C)c2ccccc21.[I-] [MTTI-157],cell associated MTTI-157 signal in tissue frozen sections (fluorescence microscopy),[1],apparent in lungs through day 14 and in liver through day 28; also recorded: lung thru Day 21 and liver and spleen thru Day 28
CCCCCCCCCCCCCCCCCCCCCCN1C(=CC=CC=CC2=[N+](CCCCCCCCCCCCCCCCCCCCCC)c3ccc(CNC(=O)CN4CCN(CC(=O)[O-])CCN(CC(=O)[O-])CCN(CC(=O)[O-])CC4)cc3C2(C)C)C(C)(C)c2ccccc21.[111In+3].[I-] [^111In-MTTI-157],retention of fluorescence marker on proliferation,"LS-174T cells; cells labeled with 20 μM, days 0, 3 and 8",succeeding generations retained the fluorescence marker with no apparent effect on cell viability
same,cell associated radioactivity,"LS-174T cells; days 3-8 in culture, 2, 10 and 20 μM",did not change at each dye concentration

# Source: patent US10537650B2, “Molecular probes for multimodality imaging and tracking of stem cells” (University of Massachusetts, priority 2012, dated 2020)
